Experimental data as given in the supplement of paper PMC10849652.
Some of the results follow.

Chains of the proteins cited; added tags and fusions are not shown. Lines headed by an entry give the natural chain unless they say otherwise; changes in a name come on top.
UniProt Q8WTV0: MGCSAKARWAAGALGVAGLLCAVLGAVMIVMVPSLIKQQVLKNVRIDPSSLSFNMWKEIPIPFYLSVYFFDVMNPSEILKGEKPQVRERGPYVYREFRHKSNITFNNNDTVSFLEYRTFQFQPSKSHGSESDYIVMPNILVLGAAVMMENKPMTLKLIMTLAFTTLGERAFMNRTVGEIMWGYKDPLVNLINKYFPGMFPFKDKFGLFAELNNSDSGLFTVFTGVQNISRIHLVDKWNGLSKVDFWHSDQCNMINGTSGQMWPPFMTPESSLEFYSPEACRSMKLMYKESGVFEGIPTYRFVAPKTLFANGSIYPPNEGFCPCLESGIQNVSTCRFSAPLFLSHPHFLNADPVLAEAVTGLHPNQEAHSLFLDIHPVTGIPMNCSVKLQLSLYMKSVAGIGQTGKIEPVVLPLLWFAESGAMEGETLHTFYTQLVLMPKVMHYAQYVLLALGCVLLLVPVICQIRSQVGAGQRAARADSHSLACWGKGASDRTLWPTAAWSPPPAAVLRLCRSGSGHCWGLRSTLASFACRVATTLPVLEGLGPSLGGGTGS
UniProt P21912: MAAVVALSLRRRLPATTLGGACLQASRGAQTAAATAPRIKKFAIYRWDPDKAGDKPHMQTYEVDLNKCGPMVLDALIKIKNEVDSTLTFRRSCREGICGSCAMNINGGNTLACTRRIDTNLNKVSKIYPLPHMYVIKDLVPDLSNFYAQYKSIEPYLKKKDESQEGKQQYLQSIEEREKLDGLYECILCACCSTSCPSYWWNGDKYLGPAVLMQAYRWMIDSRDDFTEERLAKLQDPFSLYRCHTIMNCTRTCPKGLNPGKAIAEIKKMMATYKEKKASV
UniProt Q9Y224: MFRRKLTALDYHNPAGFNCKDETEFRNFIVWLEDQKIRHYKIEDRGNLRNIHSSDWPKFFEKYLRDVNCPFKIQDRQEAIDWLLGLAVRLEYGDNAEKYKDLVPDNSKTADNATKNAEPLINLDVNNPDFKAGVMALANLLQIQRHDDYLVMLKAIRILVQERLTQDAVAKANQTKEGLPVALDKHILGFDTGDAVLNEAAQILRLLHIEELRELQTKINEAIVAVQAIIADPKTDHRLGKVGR
UniProt O95248: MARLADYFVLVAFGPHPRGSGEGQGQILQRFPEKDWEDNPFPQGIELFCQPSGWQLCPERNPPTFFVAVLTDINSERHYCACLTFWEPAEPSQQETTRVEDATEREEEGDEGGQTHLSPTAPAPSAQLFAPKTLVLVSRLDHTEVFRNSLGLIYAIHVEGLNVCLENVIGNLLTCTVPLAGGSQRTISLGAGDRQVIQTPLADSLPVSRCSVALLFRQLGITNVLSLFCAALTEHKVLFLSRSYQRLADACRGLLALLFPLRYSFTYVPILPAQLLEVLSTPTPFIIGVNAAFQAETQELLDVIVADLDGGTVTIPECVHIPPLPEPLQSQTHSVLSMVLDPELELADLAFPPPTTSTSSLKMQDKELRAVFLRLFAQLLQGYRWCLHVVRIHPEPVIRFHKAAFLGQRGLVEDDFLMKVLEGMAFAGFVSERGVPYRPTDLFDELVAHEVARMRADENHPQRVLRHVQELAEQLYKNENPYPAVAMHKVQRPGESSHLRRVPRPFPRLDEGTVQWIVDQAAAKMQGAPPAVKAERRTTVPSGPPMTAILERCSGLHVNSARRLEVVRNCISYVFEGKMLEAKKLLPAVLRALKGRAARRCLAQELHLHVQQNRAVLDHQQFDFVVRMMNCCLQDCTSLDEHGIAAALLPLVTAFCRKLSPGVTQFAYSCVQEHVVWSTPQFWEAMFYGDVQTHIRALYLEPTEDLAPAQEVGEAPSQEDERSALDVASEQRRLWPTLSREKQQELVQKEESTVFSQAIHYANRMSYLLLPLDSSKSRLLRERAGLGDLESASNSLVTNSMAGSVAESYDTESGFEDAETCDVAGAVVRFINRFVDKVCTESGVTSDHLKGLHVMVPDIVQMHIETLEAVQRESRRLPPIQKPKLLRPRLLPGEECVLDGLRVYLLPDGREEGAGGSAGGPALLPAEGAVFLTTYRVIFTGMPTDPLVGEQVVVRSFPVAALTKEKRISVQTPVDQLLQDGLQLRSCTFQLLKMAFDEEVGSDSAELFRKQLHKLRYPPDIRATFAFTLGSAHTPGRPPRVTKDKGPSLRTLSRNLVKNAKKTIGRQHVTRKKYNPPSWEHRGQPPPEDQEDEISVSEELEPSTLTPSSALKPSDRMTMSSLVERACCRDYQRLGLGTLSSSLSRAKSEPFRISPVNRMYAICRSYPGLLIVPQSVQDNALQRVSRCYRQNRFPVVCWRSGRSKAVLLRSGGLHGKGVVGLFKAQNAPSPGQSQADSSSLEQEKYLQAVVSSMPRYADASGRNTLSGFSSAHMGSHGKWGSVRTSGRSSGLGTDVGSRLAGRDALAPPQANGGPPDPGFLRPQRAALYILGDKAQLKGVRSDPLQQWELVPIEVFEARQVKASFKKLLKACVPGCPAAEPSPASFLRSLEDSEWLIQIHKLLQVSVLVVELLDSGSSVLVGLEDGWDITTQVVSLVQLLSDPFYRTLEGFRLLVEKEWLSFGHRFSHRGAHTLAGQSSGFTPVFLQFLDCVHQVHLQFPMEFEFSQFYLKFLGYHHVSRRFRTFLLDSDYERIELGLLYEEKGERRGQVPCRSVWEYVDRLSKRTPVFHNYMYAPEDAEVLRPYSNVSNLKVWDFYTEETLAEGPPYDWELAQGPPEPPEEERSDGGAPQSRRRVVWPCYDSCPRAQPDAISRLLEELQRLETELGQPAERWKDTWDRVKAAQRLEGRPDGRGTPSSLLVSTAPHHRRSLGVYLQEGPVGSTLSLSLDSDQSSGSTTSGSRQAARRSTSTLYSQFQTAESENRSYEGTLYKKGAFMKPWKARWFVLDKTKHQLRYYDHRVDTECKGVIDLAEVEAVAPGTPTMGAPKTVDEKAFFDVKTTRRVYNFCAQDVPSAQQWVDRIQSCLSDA
UniProt P67812: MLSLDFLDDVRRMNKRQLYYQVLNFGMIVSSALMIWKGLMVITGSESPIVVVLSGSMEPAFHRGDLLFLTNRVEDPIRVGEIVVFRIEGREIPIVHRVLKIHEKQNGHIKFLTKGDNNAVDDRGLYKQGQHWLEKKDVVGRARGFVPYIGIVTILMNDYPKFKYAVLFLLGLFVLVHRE
UniProt Q96FV2: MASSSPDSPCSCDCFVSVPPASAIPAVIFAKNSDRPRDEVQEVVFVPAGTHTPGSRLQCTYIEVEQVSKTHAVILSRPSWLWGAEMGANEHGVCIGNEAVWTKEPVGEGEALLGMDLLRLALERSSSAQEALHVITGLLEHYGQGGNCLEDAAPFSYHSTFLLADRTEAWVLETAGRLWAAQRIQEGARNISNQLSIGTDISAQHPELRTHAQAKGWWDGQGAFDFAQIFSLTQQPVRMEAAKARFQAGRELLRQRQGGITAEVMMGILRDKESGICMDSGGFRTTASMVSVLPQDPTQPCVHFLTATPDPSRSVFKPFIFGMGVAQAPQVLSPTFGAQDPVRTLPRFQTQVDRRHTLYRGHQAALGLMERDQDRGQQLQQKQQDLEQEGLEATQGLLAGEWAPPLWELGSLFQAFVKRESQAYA
UniProt O15126: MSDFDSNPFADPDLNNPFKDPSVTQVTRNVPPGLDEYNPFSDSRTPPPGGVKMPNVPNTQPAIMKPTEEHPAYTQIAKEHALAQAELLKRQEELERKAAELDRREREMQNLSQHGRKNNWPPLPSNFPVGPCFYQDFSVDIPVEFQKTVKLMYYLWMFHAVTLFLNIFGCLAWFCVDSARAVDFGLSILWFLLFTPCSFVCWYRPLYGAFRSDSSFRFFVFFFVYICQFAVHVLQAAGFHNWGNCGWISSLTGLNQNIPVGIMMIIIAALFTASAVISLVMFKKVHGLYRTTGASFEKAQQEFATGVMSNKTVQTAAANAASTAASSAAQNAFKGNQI
UniProt Q9UBE0: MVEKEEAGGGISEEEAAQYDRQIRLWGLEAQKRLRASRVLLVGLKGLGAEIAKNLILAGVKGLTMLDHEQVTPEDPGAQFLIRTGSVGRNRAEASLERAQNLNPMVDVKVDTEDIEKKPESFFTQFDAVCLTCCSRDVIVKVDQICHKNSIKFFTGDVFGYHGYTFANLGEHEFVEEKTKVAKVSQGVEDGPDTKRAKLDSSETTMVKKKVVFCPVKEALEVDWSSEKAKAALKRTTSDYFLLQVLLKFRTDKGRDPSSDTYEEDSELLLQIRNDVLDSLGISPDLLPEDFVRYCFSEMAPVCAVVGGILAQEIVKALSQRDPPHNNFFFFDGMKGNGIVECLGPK
UniProt Q9UHR5: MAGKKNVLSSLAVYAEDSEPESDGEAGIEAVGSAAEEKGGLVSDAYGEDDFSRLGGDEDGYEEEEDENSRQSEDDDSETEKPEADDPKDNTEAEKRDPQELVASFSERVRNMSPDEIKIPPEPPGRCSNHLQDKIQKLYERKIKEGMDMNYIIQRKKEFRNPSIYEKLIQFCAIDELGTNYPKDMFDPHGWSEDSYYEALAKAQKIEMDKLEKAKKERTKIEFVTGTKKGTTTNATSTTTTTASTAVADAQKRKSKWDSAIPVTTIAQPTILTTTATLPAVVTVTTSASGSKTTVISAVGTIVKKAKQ
UniProt P31949: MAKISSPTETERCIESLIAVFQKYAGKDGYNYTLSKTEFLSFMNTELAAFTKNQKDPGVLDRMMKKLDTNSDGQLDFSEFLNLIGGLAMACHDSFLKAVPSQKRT
UniProt O94855: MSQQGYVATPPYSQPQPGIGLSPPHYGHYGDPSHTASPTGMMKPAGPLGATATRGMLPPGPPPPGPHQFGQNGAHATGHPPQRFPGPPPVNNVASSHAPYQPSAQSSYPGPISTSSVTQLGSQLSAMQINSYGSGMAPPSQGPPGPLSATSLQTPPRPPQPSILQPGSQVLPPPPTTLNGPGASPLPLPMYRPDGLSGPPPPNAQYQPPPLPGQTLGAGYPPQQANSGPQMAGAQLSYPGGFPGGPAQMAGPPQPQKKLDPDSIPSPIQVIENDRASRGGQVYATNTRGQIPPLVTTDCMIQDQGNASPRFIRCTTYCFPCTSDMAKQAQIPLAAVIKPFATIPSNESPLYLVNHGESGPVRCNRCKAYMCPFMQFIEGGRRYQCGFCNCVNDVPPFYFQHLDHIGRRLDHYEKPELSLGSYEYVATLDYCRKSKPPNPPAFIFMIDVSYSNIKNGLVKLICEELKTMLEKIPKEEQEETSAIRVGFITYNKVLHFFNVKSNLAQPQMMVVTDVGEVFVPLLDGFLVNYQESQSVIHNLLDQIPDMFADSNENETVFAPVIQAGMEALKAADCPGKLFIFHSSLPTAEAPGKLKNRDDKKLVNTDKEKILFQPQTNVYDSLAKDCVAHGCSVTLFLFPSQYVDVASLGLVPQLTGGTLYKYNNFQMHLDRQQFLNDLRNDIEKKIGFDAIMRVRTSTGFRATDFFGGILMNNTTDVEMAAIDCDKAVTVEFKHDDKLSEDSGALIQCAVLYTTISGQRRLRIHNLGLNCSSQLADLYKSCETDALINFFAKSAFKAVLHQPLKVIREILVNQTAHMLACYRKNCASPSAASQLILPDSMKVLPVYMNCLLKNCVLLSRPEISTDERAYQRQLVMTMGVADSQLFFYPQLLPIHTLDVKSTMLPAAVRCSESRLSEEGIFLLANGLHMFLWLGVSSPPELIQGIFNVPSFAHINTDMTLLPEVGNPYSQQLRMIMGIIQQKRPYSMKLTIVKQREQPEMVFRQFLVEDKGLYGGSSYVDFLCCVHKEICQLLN
UniProt Q0VDG4: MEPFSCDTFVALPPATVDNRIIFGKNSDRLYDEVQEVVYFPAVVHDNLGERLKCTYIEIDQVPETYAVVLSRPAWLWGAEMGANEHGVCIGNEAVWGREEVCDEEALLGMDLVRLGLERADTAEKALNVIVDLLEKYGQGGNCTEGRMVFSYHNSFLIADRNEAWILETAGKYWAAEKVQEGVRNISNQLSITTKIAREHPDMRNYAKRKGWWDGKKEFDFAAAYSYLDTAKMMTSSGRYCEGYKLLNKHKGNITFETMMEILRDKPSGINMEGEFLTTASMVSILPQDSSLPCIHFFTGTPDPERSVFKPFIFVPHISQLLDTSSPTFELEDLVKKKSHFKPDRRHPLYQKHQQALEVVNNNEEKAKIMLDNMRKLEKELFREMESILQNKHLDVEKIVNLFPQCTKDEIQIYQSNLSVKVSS
UniProt Q14108: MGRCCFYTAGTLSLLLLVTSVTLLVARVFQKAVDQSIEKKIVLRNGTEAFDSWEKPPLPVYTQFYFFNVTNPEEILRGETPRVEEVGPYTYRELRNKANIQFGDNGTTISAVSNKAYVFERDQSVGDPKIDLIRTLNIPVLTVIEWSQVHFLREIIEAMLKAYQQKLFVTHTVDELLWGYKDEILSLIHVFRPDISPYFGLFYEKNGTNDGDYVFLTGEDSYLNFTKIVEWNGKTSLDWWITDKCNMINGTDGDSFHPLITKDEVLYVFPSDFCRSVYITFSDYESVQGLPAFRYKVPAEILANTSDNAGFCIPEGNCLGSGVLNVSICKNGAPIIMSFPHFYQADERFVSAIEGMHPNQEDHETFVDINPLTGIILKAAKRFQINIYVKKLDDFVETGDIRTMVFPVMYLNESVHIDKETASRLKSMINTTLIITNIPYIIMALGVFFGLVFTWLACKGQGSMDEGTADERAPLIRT

Experiments:
Assay in all cases: log2 fold change, soluble protein after heating vs DMSO (PISA); higher = thermal stabilisation; K562 cells, 10 uM, 30 min; active = over 0.2 and 3.5 SD of the protein, either way, in both replicates (recomputed)
[1] = compound: CC[C@@H]1C(=O)N(C)c2cnc(Nc3ccc(C(=O)NC4CCN(C)CC4)cc3OC)nc2N1C1CCCC1
Method in brief: (§1)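 K562 cells at 2×10^6 cells/mL were given 10 μM compound for 30 min. Aliquots then went through 3 min of heating across 48°C-58°C, were pooled, and were extracted in PBS with 0.5% NP-40 at 4°C, and the supernatant after 21,000xg for 90 min was quantified by TMTpro 16plex LC-MS/MS with channel sums equalised. Thermal stability relative to control samples, from duplicates, is given as log2 fold change.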

[2] = compound: CC[C@@H]1C(=O)N(C)c2cnc(Nc3ccc(C(=O)N[C@H]4CC[C@H](N5CCN(CC6CC6)CC5)CC4)cc3OC)nc2N1C(C)C [volasertib]
Method in brief: as §1

[3] = compound: CC[C@H](C)N1C=C(C2=C(C=C(C=C21)C3=CN=C(C=C3)N4CCNCC4)C(=O)NCC5=C(C=C(NC5=O)C)C)C
Method in brief: as §1

[4] = compound: CC[C@H](C)[C@@H](C(=O)N[C@@H]([C@@H](C)O)C(=O)N[C@@H](CC(C)C)C(=O)[C@]1(CO1)C)NC(=O)[C@H]([C@@H](C)CC)N(C)C(=O)C [epoxomicin]
Method in brief: as §1

[5] = compound: CCn1c(C(=O)N(C2CC2)C2CC2)cc2c3c(ncn3C)c(Nc3cc(C)n(C)n3)nc21
Method in brief: as §1

[6] = compound: CCn1cc(-c2ccnc3[nH]c(-c4cccc(CN(C)C)c4)cc23)c(-c2ccc(NC(=O)N(C)C)cc2)n1
Method in brief: as §1

[7] = compound: CN(C)CC(=O)Nc1ccc2[nH]c(=O)c3ccccc3c2c1
Method in brief: as §1

[8] = compound: CN(CCOC1=CC=C(C=C1)C[C@H]2C(=O)NC(=O)S2)C3=CC=CC=N3 (racemic) [rosiglitazone]
Method in brief: as §1

[9] = compound: CN1C2=C(C3=C1C(=O)N(N=C3)CC4=CC(=CC=C4)N)SC(=C2)S(=O)C
Method in brief: as §1

[10] = compound: CN1CCC(CNc2ccc3ncc(-c4cccc(OC(F)(F)F)c4)n3n2)CC1
Method in brief: as §1

Measured: log2 fold change

SCARB1 isoform 2 (UniProt Q8WTV0)
inactive: [1] -0.027 | [2] -0.132 | [3] -0.018 | [4] 0.011 | [5] 0.01 | [6] 0.03 | [7] 0.05 | [8] -0.017 | [9] -0.018 | [10] 0.116

RTF1 (UniProt Q92541)
inactive: [1] -0.032 | [2] -0.121 | [3] 0.059 | [4] 0.09 | [5] -0.016 | [6] -0.034 | [7] 0.028 | [8] 0.019 | [9] -0.07 | [10] -0.044

SDHB (UniProt P21912)
inactive: [1] -0.031 | [2] 0.072 | [3] 0.036 | [4] -0.021 | [5] 0.029 | [6] -0.032 | [7] 0 | [8] -0.026 | [9] -0.024 | [10] -0.079

RTRAF (UniProt Q9Y224)
inactive: [1] 0.113 | [2] 0.056 | [3] -0.008 | [4] -0.049 | [5] -0.039 | [6] 0.029 | [7] -0.05 | [8] -0.031 | [9] 0.075 | [10] 0.028

SBF1 isoform 4 (UniProt O95248)
inactive: [1] -0.082 | [2] -0.032 | [3] -0.009 | [4] -0.175 | [5] -0.034 | [6] -0.019 | [7] 0.065 | [8] -0.111 | [9] 0.153 | [10] -0.299

SEC11A isoform 3 (UniProt P67812)
inactive: [1] 0.007 | [2] 0.004 | [3] 0.015 | [4] -0.013 | [5] -0.01 | [6] 0.035 | [7] -0.003 | [8] 0.032 | [9] -0.015 | [10] 0.007

SART1 (UniProt O43290)
inactive: [1] 0.114 | [2] 0.112 | [3] 0.031 | [4] -0.375 | [5] 0.003 | [6] 0.189 | [7] -0.137 | [8] -0.13 | [9] 0.262 | [10] 0.22

S100A13 (UniProt Q99584)
inactive: [1] 0.009 | [2] 0.083 | [3] 0.009 | [4] -0.009 | [5] 0.014 | [6] 0.008 | [7] 0.004 | [8] 0.015 | [9] -0.061 | [10] -0.125

SAR1B (UniProt Q9Y6B6)
inactive: [1] 0.033 | [2] 0.033 | [3] -0.019 | [4] 0.057 | [5] -0.019 | [6] -0.071 | [7] 0.04 | [8] 0.019 | [9] -0.095 | [10] 0.013

SCRN2 (UniProt Q96FV2)
inactive: [1] 0.059 | [2] 0.108 | [3] 0.196 | [4] 0.129 | [5] 0.035 | [6] -0.021 | [7] -0.077 | [8] 0.028 | [9] -0.018 | [10] 0.022

RTN4 (UniProt Q9NQC3)
inactive: [1] 0.062 | [2] 0.006 | [3] -0.045 | [4] 0.013 | [5] 0.023 | [6] 0.015 | [7] 0.021 | [8] 0.04 | [9] -0.059 | [10] 0.042

SCAF4 (UniProt O95104)
inactive: [1] -0.261 | [2] -0.198 | [3] 0.001 | [4] 0.105 | [5] -0.01 | [6] 0.042 | [7] 0.015 | [8] 0.014 | [9] -0.127 | [10] -0.149

SEC13 isoform 3 (UniProt P55735)
inactive: [1] 0.045 | [2] 0.013 | [3] 0.002 | [4] 0.065 | [5] -0.014 | [6] -0.018 | [7] 0.006 | [8] 0.021 | [9] 0.029 | [10] -0.072

SDSL (UniProt Q96GA7)
inactive: [1] 0.049 | [2] 0.043 | [3] -0.031 | [4] -0.001 | [5] -0.021 | [6] 0.017 | [7] 0.126 | [8] -0.01 | [9] -0.05 | [10] 0.006

SBDS (UniProt Q9Y3A5)
inactive: [1] -0.053 | [2] -0.079 | [3] 0.059 | [4] 0.015 | [5] -0.044 | [6] -0.074 | [7] 0.045 | [8] 0.108 | [9] -0.055 | [10] -0.138

SCAMP1 (UniProt O15126)
inactive: [1] 0.053 | [2] 0.001 | [3] -0.006 | [4] -0.031 | [5] -0.018 | [6] -0.01 | [7] -0.04 | [8] 0 | [9] -0.016 | [10] -0.036

SAE1 (UniProt Q9UBE0)
inactive: [1] -0.023 | [2] -0.066 | [3] 0.006 | [4] 0.038 | [5] -0.001 | [6] -0.045 | [7] 0.019 | [8] 0.023 | [9] -0.069 | [10] 0.025

SAP30BP (UniProt Q9UHR5)
inactive: [1] -0.009 | [2] -0.072 | [3] -0.04 | [4] 0.038 | [5] -0.013 | [6] -0.012 | [7] -0.016 | [8] 0.002 | [9] -0.03 | [10] -0.043

RSBN1L (UniProt Q6PCB5)
inactive: [1] 0.263 | [2] 0.484 | [3] 0.017 | [4] -0.246 | [5] -0.016 | [6] 0.119 | [7] -0.096 | [8] -0.069 | [9] 0.344 | [10] 0.236

S100A11 (UniProt P31949)
inactive: [1] -0.03 | [2] 0.048 | [3] 0 | [4] 0.191 | [5] 0.094 | [6] 0.051 | [7] -0.08 | [8] -0.017 | [9] -0.068 | [10] 0.059

SEC24D isoform 2 (UniProt O94855)
inactive: [1] 0 | [2] -0.094 | [3] 0.024 | [4] 0.108 | [5] -0.047 | [6] -0.125 | [7] 0.036 | [8] 0.032 | [9] -0.006 | [10] 0.129

Reprinted from the results shown (two entries):
RSBN1L (UniProt Q6PCB5)
inactive: [1] 0.263 | [2] 0.484 | [3] 0.017 | [4] -0.246 | [5] -0.016 | [6] 0.119 | [7] -0.096 | [8] -0.069 | [9] 0.344 | [10] 0.236

S100A11 (UniProt P31949)
inactive: [1] -0.03 | [2] 0.048 | [3] 0 | [4] 0.191 | [5] 0.094 | [6] 0.051 | [7] -0.08 | [8] -0.017 | [9] -0.068 | [10] 0.059

More entries

SCRN3 (UniProt Q0VDG4)
inactive: [1] 0.057 | [2] 0.019 | [3] 0.041 | [4] 0.121 | [5] 0.009 | [6] -0.037 | [7] 0.012 | [8] 0.054 | [9] 0.003 | [10] -0.087

SCAMP3 (UniProt O14828)
inactive: [1] -0.03 | [2] -0.022 | [3] -0.015 | [4] -0.066 | [5] 0.051 | [6] -0.007 | [7] -0.027 | [8] -0.009 | [9] 0.009 | [10] 0.008

SACS (UniProt Q9NZJ4)
inactive: [1] -0.036 | [2] 0.109 | [3] -0.016 | [4] -0.069 | [5] 0.041 | [6] 0.036 | [7] -0.191 | [8] -0.033 | [9] 0.16 | [10] -0.118

SCARB2 (UniProt Q14108)
inactive: [1] -0.075 | [2] -0.105 | [3] -0.034 | [4] 0.086 | [5] 0.008 | [6] -0.012 | [7] 0.062 | [8] 0 | [9] 0.071 | [10] 0.06

SCFD2 (UniProt Q8WU76)
inactive: [1] 0.04 | [2] -0.065 | [3] 0.004 | [4] -0.12 | [5] -0.032 | [6] 0.146 | [7] -0.06 | [8] -0.002 | [9] 0.184 | [10] 0.032

SAP18 isoform 2 (UniProt O00422)
inactive: [1] 0.078 | [2] 0.056 | [3] -0.021 | [4] -0.133 | [5] 0.039 | [6] 0.08 | [7] -0.14 | [8] -0.081 | [9] 0.179 | [10] 0.144
